Assay results from article PMC5540934.
No constants are given. Whether binding was seen depends on the method and setting. A result given as binding can be weak or reduced; the word gives no strength.

Sequences of proteins named here, by UniProt entry; tags and fusion partners are left off. A change or cut given only in a name is not applied to a line headed by its entry. Residues count along the entry.
UniProt P11362, residues 22-376: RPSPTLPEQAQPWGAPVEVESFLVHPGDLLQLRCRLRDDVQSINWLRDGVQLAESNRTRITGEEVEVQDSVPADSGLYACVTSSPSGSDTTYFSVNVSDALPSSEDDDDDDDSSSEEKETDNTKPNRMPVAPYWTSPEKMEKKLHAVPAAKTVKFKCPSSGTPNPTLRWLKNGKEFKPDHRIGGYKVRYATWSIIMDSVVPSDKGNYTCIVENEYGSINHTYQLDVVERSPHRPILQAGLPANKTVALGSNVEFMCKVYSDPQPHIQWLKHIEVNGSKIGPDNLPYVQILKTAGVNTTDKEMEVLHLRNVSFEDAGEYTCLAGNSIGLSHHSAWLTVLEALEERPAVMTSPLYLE
UniProt Q86Z14: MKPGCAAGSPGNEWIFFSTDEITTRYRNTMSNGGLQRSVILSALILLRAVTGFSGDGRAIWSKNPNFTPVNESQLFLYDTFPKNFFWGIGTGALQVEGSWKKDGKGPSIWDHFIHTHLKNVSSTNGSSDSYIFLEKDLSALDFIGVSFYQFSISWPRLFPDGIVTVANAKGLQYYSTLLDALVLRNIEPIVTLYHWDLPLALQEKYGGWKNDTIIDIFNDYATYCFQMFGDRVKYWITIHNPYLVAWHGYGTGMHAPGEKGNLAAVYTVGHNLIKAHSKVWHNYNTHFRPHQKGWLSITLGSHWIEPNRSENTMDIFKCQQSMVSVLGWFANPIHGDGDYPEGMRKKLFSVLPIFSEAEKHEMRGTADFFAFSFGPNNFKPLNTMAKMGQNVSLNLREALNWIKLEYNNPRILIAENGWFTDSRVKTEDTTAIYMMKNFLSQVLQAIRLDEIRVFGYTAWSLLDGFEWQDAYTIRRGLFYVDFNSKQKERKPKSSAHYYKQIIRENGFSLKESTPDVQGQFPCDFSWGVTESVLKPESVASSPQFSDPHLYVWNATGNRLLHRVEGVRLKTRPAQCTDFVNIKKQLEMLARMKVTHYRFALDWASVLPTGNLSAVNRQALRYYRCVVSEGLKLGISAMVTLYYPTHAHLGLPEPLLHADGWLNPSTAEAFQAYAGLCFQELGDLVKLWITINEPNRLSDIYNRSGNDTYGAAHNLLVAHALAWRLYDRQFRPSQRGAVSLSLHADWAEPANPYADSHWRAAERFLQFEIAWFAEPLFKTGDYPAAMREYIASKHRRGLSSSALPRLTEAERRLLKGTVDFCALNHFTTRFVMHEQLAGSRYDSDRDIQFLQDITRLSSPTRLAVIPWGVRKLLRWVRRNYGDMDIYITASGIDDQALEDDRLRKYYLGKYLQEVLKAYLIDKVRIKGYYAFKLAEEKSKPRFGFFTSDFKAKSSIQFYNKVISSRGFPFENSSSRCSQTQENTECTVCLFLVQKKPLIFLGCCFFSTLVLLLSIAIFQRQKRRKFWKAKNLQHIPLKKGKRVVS

Biological target: Full length extracellular part of FGFR1 fused with Fc fragment (FGFR1 D1-D2-D3-Fc) (UniProt P11362)
Test: BLI; Octet RED K2; FGFR1 D1-D3-Fc (10 µg/ml) chemically immobilised on AR2G biosensors; β-Klotho 11 µg/ml, alone or after and with excess scFv proteins (30 µg/ml); both purified

binding: binds
Substance: Human β-Klotho (from UniProt Q86Z14) (receptor)
